Experimental data as given in patent publication US20260256694A1, “Multilamellar Vesicle Drug Formulation” (Nanostar Pharmaceuticals Ltd., priority 2022, published 2026).
The name of at least one read-out is uncertain.

Assay: Pharmacokinetics after oral gavage in mice
Conditions: 10 mg/kg, plasma

CCN(CC)CCCC(C)Nc1ccnc2cc(Cl)ccc12 (stereo not shown) [CQ solution, chloroquine diphosphate]
time of reaching Cmax: 3 h
